Measurements reported in PMC6614843.
No constants are given. Whether binding was seen depends on the method and setting. In cells and extracts the contact can be indirect. Some results given as binding are weak or reduced against the parent protein; the word gives no strength.

Protein sequences, listed by entry. Tags and fused reporters are not part of them.
UniProt P09874: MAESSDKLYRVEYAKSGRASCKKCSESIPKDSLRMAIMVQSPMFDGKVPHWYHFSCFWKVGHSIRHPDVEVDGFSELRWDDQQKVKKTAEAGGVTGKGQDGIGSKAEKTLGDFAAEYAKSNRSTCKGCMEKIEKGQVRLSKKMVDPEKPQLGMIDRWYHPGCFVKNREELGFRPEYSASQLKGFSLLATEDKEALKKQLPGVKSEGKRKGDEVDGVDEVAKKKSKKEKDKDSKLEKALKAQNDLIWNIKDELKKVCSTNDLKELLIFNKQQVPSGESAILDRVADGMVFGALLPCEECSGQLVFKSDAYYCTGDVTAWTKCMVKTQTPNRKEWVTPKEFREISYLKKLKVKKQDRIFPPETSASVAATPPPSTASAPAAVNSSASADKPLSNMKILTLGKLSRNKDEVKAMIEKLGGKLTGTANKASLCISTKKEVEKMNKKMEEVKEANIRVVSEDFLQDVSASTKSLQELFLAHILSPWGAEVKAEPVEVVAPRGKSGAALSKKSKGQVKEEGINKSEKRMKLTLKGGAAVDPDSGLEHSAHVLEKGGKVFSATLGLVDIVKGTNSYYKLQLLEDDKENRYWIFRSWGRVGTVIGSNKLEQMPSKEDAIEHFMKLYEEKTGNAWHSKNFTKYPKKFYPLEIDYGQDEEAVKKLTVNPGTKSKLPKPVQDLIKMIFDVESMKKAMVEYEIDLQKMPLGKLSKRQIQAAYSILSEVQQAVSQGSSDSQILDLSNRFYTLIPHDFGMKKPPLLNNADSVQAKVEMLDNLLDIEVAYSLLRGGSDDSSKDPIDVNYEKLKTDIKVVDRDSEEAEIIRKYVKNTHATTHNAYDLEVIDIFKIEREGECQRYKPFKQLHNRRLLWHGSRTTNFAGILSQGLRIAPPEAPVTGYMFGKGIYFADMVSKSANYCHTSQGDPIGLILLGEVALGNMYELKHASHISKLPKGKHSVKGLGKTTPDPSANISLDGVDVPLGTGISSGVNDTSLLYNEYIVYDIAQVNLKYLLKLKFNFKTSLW
UniProt P18887: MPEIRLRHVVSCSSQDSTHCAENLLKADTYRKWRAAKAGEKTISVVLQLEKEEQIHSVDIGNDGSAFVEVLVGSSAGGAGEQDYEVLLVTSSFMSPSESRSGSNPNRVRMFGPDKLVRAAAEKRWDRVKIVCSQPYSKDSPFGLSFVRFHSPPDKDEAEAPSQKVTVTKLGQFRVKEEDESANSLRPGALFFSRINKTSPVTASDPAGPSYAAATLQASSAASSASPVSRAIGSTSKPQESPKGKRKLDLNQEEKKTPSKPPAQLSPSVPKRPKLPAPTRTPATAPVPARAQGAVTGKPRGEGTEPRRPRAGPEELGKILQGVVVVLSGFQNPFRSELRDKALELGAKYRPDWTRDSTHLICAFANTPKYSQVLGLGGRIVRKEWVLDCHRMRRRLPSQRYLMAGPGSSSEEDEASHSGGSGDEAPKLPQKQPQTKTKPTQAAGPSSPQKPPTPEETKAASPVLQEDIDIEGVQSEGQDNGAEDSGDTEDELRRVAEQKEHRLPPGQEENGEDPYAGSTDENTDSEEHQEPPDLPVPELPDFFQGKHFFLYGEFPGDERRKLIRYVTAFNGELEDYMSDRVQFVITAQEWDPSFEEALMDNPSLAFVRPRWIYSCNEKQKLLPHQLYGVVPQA

Biological target: GST-NQO1 (UniProt P15559)
Experiment: pull-down; GST-Polβ, GST-Polβ mutants, GST-NQO1, GST-NQO1(Y128F) or GST-EGFP on glutathione-agarose incubated 4 h with cell lysate (methods: HCT116; legends: LN428, T98G); cells untreated or treated with dicumarol (400 μM, 5 h) or H2O2 (150 μM, 0-3 h; 0-250 μM, 3 h); immunoblot; only the target purified

| Substance | binding |
| --- | --- |
| PARP1 (endogenous) (from UniProt P09874 1-1014) | binds |
| XRCC1 (endogenous) (from UniProt P18887 1-633) | binds |
